Reference: paper doi:10.1101/2022.11.11.516176
Results are given in words; binding and its absence hold for the method and conditions named. For part of these data: Binding seen in cells or lysates may run through a third protein. Some results given as binding are weak or reduced against the parent protein; the word gives no strength.

The chains behind the UniProt entries cited, without tags or fusion partners.
UniProt P55884: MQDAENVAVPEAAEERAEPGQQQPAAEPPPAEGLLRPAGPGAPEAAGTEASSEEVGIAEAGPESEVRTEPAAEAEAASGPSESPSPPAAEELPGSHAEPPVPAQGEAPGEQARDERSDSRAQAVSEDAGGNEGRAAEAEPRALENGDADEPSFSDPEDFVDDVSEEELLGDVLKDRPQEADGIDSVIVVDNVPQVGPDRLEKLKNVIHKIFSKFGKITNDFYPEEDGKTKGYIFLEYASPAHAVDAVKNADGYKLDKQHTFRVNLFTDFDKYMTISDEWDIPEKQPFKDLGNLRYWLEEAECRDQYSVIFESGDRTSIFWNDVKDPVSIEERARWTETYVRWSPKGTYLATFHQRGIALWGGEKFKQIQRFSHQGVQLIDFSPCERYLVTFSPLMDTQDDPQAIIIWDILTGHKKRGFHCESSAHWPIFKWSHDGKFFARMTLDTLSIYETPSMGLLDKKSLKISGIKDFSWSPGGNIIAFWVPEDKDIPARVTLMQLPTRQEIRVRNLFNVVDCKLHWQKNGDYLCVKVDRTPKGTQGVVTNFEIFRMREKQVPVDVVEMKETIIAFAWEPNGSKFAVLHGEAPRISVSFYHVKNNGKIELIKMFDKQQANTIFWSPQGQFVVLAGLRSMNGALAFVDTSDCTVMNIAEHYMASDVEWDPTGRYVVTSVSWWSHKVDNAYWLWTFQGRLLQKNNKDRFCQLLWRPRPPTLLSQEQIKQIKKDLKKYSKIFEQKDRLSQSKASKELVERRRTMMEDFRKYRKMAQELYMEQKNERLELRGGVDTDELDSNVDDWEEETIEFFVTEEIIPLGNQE
UniProt P06730: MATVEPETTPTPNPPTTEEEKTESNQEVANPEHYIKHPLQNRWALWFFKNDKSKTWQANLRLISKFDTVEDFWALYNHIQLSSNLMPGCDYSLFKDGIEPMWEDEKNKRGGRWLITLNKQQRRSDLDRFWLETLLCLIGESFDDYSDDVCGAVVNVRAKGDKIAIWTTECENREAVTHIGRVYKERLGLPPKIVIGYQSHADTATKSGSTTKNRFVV
UniProt Q04637: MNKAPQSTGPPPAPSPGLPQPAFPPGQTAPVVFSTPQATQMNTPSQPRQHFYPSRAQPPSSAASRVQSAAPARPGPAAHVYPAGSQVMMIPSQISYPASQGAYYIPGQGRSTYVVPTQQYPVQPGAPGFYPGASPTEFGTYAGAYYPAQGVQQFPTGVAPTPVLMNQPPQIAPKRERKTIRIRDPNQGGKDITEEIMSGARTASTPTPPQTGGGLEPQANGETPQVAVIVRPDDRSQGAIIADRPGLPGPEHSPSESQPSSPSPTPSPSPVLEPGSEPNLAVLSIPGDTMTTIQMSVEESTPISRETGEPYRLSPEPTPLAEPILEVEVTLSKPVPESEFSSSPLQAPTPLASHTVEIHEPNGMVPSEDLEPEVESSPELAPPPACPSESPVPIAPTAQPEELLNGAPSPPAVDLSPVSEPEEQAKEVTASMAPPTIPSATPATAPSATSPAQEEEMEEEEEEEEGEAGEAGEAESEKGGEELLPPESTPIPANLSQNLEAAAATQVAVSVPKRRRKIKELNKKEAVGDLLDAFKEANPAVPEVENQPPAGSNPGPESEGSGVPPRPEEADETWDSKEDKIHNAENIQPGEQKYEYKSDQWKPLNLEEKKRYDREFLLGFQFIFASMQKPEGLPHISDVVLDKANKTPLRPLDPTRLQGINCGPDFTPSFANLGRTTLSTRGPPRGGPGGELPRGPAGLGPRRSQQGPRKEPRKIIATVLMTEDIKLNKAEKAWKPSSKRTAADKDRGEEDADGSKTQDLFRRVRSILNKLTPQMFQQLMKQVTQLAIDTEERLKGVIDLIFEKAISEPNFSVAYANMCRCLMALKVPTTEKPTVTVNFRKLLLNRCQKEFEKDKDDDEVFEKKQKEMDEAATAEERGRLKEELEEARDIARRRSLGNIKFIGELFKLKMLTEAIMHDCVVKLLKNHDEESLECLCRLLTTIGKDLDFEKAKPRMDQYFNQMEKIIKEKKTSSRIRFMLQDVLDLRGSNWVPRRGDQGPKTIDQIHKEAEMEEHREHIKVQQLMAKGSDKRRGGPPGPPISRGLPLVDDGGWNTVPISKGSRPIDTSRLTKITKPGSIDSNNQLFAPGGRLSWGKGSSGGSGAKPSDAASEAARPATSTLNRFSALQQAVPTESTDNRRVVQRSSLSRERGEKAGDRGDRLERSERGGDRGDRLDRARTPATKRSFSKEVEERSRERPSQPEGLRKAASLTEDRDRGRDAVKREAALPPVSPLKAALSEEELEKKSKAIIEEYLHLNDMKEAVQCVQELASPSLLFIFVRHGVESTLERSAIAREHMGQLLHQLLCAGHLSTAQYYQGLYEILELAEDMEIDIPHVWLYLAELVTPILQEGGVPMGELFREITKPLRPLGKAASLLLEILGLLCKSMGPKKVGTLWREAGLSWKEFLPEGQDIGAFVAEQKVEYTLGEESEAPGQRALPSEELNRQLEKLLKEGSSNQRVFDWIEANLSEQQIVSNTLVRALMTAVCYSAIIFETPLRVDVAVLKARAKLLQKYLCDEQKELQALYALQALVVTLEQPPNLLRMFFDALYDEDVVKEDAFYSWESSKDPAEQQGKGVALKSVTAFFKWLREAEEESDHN
UniProt P48634: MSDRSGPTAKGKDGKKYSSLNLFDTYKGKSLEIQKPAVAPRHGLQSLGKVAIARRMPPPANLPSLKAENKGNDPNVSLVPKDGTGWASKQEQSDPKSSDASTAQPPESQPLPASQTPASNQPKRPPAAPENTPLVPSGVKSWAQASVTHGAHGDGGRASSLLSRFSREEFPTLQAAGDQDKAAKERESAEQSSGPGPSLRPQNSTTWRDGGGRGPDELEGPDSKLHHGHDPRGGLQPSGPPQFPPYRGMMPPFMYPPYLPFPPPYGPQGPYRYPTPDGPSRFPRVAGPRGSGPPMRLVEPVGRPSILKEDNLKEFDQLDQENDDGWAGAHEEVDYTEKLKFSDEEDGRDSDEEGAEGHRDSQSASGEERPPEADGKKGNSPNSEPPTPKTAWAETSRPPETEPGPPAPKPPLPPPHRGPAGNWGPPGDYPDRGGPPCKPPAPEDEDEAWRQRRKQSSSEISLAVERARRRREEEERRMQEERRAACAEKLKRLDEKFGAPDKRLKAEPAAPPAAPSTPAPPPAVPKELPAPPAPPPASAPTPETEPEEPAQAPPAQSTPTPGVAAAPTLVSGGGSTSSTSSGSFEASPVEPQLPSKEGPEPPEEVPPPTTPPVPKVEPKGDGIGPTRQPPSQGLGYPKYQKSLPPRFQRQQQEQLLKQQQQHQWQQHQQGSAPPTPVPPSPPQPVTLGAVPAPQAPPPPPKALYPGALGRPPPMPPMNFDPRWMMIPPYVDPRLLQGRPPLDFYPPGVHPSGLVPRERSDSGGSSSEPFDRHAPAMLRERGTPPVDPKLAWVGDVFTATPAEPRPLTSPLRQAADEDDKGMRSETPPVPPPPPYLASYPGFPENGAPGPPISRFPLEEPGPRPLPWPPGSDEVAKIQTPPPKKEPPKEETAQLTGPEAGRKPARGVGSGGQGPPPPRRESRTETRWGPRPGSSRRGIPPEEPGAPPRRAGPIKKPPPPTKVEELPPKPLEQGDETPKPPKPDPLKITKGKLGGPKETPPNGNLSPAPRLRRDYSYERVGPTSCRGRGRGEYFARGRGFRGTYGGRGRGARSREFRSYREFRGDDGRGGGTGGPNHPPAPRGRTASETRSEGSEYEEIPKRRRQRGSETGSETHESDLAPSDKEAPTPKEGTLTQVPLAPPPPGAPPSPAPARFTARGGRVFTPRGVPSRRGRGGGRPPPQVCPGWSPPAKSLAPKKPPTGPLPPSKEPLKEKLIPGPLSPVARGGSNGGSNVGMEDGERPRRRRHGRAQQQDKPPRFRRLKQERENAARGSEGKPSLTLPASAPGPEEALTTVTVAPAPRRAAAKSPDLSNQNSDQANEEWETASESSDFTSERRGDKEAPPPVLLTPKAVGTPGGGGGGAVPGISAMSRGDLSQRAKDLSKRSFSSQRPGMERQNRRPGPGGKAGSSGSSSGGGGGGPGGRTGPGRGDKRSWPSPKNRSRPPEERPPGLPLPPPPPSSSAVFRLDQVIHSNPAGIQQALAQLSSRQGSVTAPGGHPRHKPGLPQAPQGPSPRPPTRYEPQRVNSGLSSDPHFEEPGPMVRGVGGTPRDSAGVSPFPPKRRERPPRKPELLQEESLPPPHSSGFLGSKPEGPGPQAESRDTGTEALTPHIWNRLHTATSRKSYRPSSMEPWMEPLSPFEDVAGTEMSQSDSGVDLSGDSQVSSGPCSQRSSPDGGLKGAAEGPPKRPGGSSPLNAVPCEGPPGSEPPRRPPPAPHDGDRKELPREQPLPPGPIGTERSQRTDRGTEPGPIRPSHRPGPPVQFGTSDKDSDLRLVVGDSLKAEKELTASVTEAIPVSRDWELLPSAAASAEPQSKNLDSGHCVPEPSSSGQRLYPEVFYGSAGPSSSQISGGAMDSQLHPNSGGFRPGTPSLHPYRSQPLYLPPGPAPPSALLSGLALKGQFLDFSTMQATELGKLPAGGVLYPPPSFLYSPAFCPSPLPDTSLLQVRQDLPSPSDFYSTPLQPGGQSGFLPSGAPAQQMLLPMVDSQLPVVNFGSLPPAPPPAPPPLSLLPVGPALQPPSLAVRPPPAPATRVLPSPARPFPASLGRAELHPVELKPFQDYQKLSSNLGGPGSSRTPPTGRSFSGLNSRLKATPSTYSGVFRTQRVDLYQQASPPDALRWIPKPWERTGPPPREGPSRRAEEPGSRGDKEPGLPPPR

Columns and labels:
[1] = biological target: eIF3B (human (endogenous in HeLa)) (UniProt P55884); assay: selective 80S ribosome footprinting
[2] = biological target: eIF4E (human (endogenous in HeLa)) (UniProt P06730); assay: selective 80S ribosome footprinting
[3] = biological target: eIF4G1 (human (endogenous in HeLa)) (UniProt Q04637); assay: selective 80S ribosome footprinting
[4] = biological target: eIF3B (human (endogenous in HeLa)) (UniProt P55884); assay: co-IP
[5] = biological target: eIF4E (human (endogenous in HeLa)) (UniProt P06730); assay: co-IP
[6] = biological target: eIF4G1 (human (endogenous in HeLa)) (UniProt Q04637); assay: co-IP

Measured: binding

eIF4G1 (from UniProt Q04637 1-1599)
binds: [1]

PRRC2A (from UniProt P48634 1-2157)
binds: [1] | [2] | [3]

PRRC2B (from UniProt Q5JSZ5 1-2229)
binds: [4] | [1]

PRRC2C (from UniProt Q9Y520 1-2896)
binds: all assays above
